Data on one substance can be found in publication PMC5779225.

Amino acid sequences for entries named in this document (tags omitted). Residues count along the entry.
UniProt P06213, residues 763-1382: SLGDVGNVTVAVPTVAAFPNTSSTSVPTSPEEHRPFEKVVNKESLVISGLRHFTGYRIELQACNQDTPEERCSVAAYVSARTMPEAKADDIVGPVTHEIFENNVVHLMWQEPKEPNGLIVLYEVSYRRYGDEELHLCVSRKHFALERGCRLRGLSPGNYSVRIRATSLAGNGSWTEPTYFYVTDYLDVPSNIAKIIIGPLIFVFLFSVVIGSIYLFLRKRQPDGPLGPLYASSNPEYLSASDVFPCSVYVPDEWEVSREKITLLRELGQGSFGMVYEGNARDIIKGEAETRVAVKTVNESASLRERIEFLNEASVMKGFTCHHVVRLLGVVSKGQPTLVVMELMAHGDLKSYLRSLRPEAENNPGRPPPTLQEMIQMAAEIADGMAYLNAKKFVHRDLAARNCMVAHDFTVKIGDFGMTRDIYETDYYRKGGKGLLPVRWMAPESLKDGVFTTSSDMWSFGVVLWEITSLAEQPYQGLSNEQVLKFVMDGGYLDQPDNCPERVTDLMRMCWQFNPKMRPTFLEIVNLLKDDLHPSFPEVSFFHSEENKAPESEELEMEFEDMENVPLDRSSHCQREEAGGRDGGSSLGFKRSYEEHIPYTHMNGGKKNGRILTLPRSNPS

No constants are given. Whether binding was seen depends on the method and setting. In cells and extracts the contact can be indirect. Where a sequence is shown, tags or fusion partners need not be part of it.

The target in the experiment is T1, Shisa2-MycHis (mouse) (UniProt Q8QZV2).
T1 sequence: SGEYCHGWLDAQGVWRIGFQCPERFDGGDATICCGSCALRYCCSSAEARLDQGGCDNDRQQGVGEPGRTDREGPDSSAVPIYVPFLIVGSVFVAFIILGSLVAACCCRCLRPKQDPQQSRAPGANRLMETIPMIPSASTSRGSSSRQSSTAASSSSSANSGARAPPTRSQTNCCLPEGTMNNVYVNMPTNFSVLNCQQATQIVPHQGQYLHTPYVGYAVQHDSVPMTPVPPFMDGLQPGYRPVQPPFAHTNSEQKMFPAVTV
Briefly: co-IP; HEK293T cells lysed 48 hr after transfection in IP buffer (20 mM Tris HCl pH 7.5, 150 mM NaCl, 1 mM EGTA, 0.1% TX-100); immunoprecipitated with anti-HA or anti-Myc antibodies and protein A/G agarose; immunoblot. A general note: In western blotting, separated proteins are transferred to a membrane and probed.

For “Insulin receptor β (IRβ) (from UniProt P06213 763-1382)”, the binding result is listed as “no binding”.
